Data taken from publication PMC9071424.
Results are given in words; binding and its absence hold for the method and conditions named. Some entries that bind do so weakly or less than the wild type.

Protein sequences, listed by entry. Tags and fused reporters are not part of them. Residues count along the entry.
UniProt Q13426: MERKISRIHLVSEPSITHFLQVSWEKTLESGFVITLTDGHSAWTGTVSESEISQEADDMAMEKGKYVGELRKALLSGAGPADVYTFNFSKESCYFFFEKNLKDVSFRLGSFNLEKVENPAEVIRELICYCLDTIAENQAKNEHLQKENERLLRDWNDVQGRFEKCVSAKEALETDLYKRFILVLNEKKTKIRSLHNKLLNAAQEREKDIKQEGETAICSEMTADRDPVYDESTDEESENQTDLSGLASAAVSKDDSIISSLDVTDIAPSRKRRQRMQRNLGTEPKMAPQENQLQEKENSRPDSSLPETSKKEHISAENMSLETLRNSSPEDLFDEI
UniProt P55854, residues 1-92: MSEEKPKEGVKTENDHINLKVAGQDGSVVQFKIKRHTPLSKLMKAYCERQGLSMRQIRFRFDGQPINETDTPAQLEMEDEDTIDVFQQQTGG

Target: 6×His-tagged full-length XRCC4 (human) (UniProt Q13426)
Assay: SPR; ProteOn XPR36; recombinant XRCC4-6×His (or variant) amine-coupled on a GLC chip; SUMO or ubiquitin topologies or XLF flowed over; 100 mM NaCl, 10 mM HEPES pH 7.0, 0.1% Igepal; 25°C; both purified

binding: binds
Substance: PolySUMO3 chains (from UniProt P55854 1-92) (complex)
